# Source: paper PMC5568730
# Results are given in words; binding and its absence hold for the method and conditions named. Binding seen in cells or lysates may run through a third protein. Binding can be weak; no strength is given.
# Target: OsOFP8-YFP (rice)
# Assay: co-IP; Arabidopsis protoplasts expressing OsOFP8-YFP and 3HA-OsGSK2 (control: YFP and 3HA-OsGSK2); input and IP blotted with GFP and HA antibodies; the IP antibody is not told in the legend
binder,measurement,value
"3HA-OsGSK2 (enzyme, UniProt Q60EZ2 1-402) MDQPAPAPEPMLLDAQPPAAVACDKKQQEGEAPYAEGNDAVTGHIISTTIGGKNGEPKRTISYMAERVVGTGSFGIVFQAKCLETGETVAIKKVLQDRRYKNRELQLMRAMDHPNVISLKHCFFSTTSRDELFLNLVMEYVPETLYRVLKHYSNANHRMPLIYVKLYMYQLFRGLAYIHTVPGVCHRDVKPQNVLVDPLTHQVKLCDFGSAKTLVPGEPNISYICSRYYRAPELIFGATEYTTSIDIWSAGCVLAELLLGQPLFPGESAVDQLVEIIKVLGTPTREEIRCMNPNYTEFRFPQIKAHPWHKVFHKRMPPEAIDLASRLLQYSPSLRCTALDACAHPFFDELREPNARLPNGRPFPPLFNFKHELANSSQELISRLIPEHVRRQATHNFFNTGS",binding,binds
